These are yes or no findings as the source states them, for the method shown. For some assays here: Binding can be weak; no strength is given. For some assays here: Binding seen in cells or lysates may run through a third protein.

Chains of the proteins cited; added tags and fusions are not shown. Lines headed by an entry give the natural chain unless they say otherwise; changes in a name come on top.
UniProt P36397: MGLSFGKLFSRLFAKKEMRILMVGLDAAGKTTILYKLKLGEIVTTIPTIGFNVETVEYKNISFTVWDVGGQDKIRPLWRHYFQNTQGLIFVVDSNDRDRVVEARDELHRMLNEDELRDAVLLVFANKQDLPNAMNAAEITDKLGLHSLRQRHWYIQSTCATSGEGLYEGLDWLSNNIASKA
UniProt Q42510: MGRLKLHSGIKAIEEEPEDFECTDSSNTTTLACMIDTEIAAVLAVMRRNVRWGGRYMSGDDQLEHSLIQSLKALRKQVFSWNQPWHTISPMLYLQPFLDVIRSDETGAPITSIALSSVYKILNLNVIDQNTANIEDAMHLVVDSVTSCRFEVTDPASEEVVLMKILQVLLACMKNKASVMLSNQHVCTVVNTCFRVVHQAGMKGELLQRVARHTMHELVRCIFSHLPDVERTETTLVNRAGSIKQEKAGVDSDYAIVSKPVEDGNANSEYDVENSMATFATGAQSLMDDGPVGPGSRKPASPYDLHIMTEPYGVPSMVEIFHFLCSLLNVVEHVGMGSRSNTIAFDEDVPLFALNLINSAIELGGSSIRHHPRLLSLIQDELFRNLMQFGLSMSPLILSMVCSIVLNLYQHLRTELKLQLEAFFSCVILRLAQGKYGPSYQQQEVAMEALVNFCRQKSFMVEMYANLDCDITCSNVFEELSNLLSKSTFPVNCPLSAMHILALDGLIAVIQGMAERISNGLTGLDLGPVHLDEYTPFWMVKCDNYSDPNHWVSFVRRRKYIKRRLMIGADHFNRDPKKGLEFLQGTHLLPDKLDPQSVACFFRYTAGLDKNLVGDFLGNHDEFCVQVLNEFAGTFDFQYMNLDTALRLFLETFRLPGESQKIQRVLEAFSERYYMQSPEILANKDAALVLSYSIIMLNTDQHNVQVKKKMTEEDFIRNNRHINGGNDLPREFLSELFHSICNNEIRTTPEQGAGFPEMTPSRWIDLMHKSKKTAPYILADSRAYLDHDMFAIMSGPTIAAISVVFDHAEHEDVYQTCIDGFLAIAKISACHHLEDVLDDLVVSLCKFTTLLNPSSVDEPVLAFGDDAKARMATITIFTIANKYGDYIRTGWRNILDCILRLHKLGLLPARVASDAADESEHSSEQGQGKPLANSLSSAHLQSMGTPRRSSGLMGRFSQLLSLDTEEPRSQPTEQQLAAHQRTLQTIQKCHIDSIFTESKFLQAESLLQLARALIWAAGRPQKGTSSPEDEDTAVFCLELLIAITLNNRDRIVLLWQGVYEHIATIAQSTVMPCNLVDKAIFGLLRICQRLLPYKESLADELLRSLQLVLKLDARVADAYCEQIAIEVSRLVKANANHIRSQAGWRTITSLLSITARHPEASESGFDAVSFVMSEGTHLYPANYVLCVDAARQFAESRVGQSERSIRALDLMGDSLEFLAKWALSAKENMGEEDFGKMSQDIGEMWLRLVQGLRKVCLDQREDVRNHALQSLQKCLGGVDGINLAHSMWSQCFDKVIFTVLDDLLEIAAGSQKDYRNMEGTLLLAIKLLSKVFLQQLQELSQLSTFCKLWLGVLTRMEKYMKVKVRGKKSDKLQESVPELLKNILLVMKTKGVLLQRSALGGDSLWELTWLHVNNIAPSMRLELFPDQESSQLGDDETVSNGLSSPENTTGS

Experiment [1] deals with ARF1-T31N-YFP (Arabidopsis thaliana) (UniProt P36397). The experiment is described as follows: co-IP.
The target of experiment [2] is ARF1-Q71L-YFP (Arabidopsis thaliana) (UniProt P36397). Briefly: co-IP.
The target in experiment [3] is GNOM-GFP (Arabidopsis thaliana) (UniProt Q42510). The experiment is described as follows: co-IP.
Experiment [4] deals with GNOM-ΔDCB(J(3A)) (Arabidopsis thaliana) (UniProt Q42510). Briefly: two-hybrid.
The target in experiment [5] is GNOM-ΔDCB (aa 232-1451) (Arabidopsis thaliana) (UniProt Q42510). The experiment is described as follows: two-hybrid.
Experiment [6] addresses GNOM-ΔDCB(B4049) (aa 232-1451; G579R) (Arabidopsis thaliana) (UniProt Q42510). Briefly: two-hybrid.
Experiment [7] addresses GN-loop>J(3A)-Myc (Arabidopsis thaliana) (UniProt Q42510). Briefly: co-IP.
Experiment [8] addresses GNOM-Myc (Arabidopsis thaliana) (UniProt Q42510). Briefly: co-IP.

For “ARF-GEF GNOM (endogenous) (from UniProt Q42510)”, the binding result in experiment [1] is “binds”; in experiment [2], “no binding”.
With GN-loop>J(3A)-Myc (from UniProt Q42510), the binding entry in experiment [1] and in experiment [3] was “binds” throughout.
For the substance “GNOM-DCB (aa 1-246) (from UniProt Q42510) (domain or fragment)”, the binding entry was “binds” in experiment [4], “binds” in experiment [5] and “no binding” in experiment [6].
With GNOM-GFP (from UniProt Q42510), in experiment [7], the binding result is listed as “binds”.
As to “endogenous ARF1 (from UniProt P36397 1-181)”, the figures for the binding result in experiment [8], in experiment [7] and in experiment [3] were “binds”, “no binding” and “binds”, respectively.

The values are drawn from publication doi:10.1101/2020.01.21.913905.
